Values quoted from earlier work as cited in patent publication US8487090B2, “Water solution of 20(R)-ginsenoside Rg3 pharmaceutical composition and process thereof” (Dalian Fusheng Natural Medicine Development Co., Ltd., priority 2006, dated 2013).
For at least one compound, name, drawing or mass did not settle the structure.

Details: cited from earlier work

For `CC(C)=CCC[C@](C)(O)[C@H]1CC[C@]2(C)[C@@H]1[C@H](O)C[C@@H]1[C@@]3(C)CC[C@H](O[C@@H]4O[C@H](CO)[C@@H](O)[C@H](O)[C@H]4O[C@@H]4O[C@H](CO)[C@@H](O)[C@H](O)[C@H]4O)C(C)(C)[C@@H]3CC[C@]12C` [20(R)-ginsenoside Rg3], the chemical stability is given as “chemically stable”.
In the case of `CC(C)=CCC[C@](C)(O)[C@H]1CC[C@]2(C)[C@@H]1[C@H](O)C[C@@H]1[C@@]3(C)CC[C@H](O[C@@H]4O[C@H](CO)[C@@H](O)[C@H](O)[C@H]4O[C@@H]4O[C@H](CO)[C@@H](O)[C@H](O)[C@H]4O)C(C)(C)[C@@H]3CC[C@]12C` [20(S)-ginsenoside Rg3], the chemical stability is given as “chemically unstable”.
